Source: patent publication US20060194268A1, “Method for measuring spinorphin” (priority 2005, published 2006)
Some results were stated once for a whole list of compounds, not compound by compound.

System: spinorphin rabbit antibody
Experiment: Competitive enzyme immunoassay, cross reactivity of spinorphin analogues
Type: binding

For VYPWT, the “cross reactivity relative to that of spinorphin” value was “not more than 0.0004 fold”.
